t1/2 data for one compound are collected here from publication PMC8252455, “Prediction of a clinically effective dose of THY1773, a novel V 1B receptor antagonist, based on preclinical data” (Biopharmaceutics & Drug Disposition, 2021).

This series in a line: Phase 1 single ascending dose study of TS-121 capsules. Conditions: human, single oral 30 mg, fasted, mean. The procedure:
The plasma concentration–time profiles of THY1773 were analyzed by a non‐compartmental analysis with PK analysis software Phoenix WinNonlin® (version 6.1; Certara), and the PK parameters were calculated. The fraction excreted in urine was calculated by dividing the amount of THY1773 excreted in urine by the administered dose.
A first‐in‐human, randomized, double‐blind, placebo‐controlled, adaptive, single‐ascending dose study was conducted to evaluate the safety, tolerability, and PK of single oral doses of TS‐121 capsules in the United States. This study was conducted in accordance with the ethical principles of the Declaration of Helsinki, International Council for Harmonization Good Clinical Practice Guidelines, and the United States Food and Drug Administration Code of Federal Regulations. The study was approved by an institutional ethical review board. All subjects provided written informed consent before participating in the study. […]
Blood samples were collected at predose and 0.25, 0.5, 0.75, 1, 1.5, 2, 3, 4, 6, 8, 10, 12, 24, 36, and 48 h postdose. […] THY1773 plasma and urine concentrations were determined by validated LC‐MS/MS methods. PK parameters were evaluated following the method as described in Section 2.5 PK analysis.

SMILES strings stand for the structures. Some entries of the source have several records that differ or are many. This list holds those alone. An entry can have further records. The records of an entry read as repeated measurements on other runs, samples or individuals; one of them may be the mean.

On to `CC(C)NC(=O)Cn1c(-c2cccc(Cl)c2)nn(-c2ccc(CCN3CCOCC3)cc2)c1=O` [THY1773], for which the t1/2 is 21 h and approximately 21 h and 20.5 h.
